Source: PubChem BioAssay AID504764 (Drosophila RNAi Screening Center, 2011)
In all, the deposit lists about 22,000 reagents; shown is an unselected part of those with a known target gene and a result. Over the whole deposit, 403 (1.9%) are marked active. 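Unnormalised raw counts per well; ratio z-scores behind the hit calls and whether each hit raises or lowers signal are not deposited.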 Unmarked entries are inactive. Names joined by + are all predicted targets of the reagent. No sequences are given here. The record does not give: the amount of reagent.

Aim: 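Knock-downs that raise or lower a Notch target reporter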 (primary screen)
Cell system: Drosophila Kc167 cells
Reagents: long dsRNA against Drosophila genes
Time to read-out: about 5 days (4 days dsRNA, then 24 h after transfection)
Conditions: transfection of constitutively active membrane-tethered Notch lacking the extracellular domain, read 24 h later
Detection: 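Firefly luciferase from an E(spl)m3 reporter with active Notch, plus control-promoter and uninduced reporter wells for normalisation; unnormalised counts, duplicate wells a and b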
Reading the numbers: induced reporter light, run 1, well a and induced reporter light, run 1, well b: higher = more light from the Notch target reporter with active Notch; control promoter light, run 1, well a and control promoter light, run 1, well b: higher = more light from the viral control promoter (cell number, transfection, viability); uninduced reporter light, run 1, well a: higher = more light from the Notch target reporter without active Notch
Call rule: 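Hit if the duplicate-averaged log2 ratio of induced to control-promoter light gives a plate-wise z beyond ±2, or induced to uninduced beyond ±1.8; weak-control or discordant-duplicate wells dropped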
Meaning of the calls: active = modifier hit (raised or lowered Notch signal); inactive = not a hit

target | amplicon | induced reporter light, run 1, well a | induced reporter light, run 1, well b | control promoter light, run 1, well a | control promoter light, run 1, well b | uninduced reporter light, run 1, well a
CG6652 | DRSC10686 | 1.14e5 | 86230 | 69265 | 72615 | 8945
lncRNA:CR32658 | DRSC19402 | 1.06e5 | 1.05e5 | 1.24e5 | 1.33e5 | 6960
Sr-CI | DRSC00790 | 1.65e5 | 1.90e5 | 3.11e5 | 2.99e5 | 15595
Takl1 | DRSC13443 | 83760 | 62795 | 76145 | 67050 | 7420
Cpr23B | DRSC00555 | 1.10e5 | 94205 | 94370 | 79570 | 7915
CG11843 | DRSC14401 | 1.54e5 | 1.47e5 | 2.20e5 | 2.19e5 | 12850
Jon99Fii + Jon99Cii + Jon99Ciii + 1 more | DRSC15298 | 1.30e5 | 1.30e5 | 1.77e5 | 1.99e5 | 12085
pie | DRSC03590 | 1.91e5 | 1.88e5 | 1.80e5 | 2.03e5 | 15238
CG8944 | DRSC20128 | 2.34e5 | 2.36e5 | 2.66e5 | 2.31e5 | 17370
eIF3d2 | DRSC15651 | 1.46e5 | 1.39e5 | 1.44e5 | 1.36e5 | 11515

Continued; the last 2 above are carried over.
target | amplicon | induced reporter light, run 1, well a | induced reporter light, run 1, well b | control promoter light, run 1, well a | control promoter light, run 1, well b | uninduced reporter light, run 1, well a
CG8944 | DRSC20128 | 2.34e5 | 2.36e5 | 2.66e5 | 2.31e5 | 17370
eIF3d2 | DRSC15651 | 1.46e5 | 1.39e5 | 1.44e5 | 1.36e5 | 11515
Gpo3 | DRSC01978 | 1.27e5 | 1.41e5 | 1.59e5 | 1.66e5 | 11630
Ubc10 | DRSC07568 | 46080 | 32610 | 35930 | 54170 | 3350
CG7011 + Prp31 | DRSC10760 | 1.30e5 | 1.64e5 | 1.24e5 | 1.46e5 | 13565
CG9826 | DRSC04570 | 2.25e5 | 2.04e5 | 2.10e5 | 2.03e5 | 17955
sba | DRSC13643 | 14500 | 12700 | 15250 | 14505 | 5425
sba | DRSC17050 | 1.02e5 | 1.12e5 | 1.56e5 | 1.33e5 | 11425
Ir11a | DRSC19699 | 1.12e5 | 1.08e5 | 1.89e5 | 2.13e5 | 9300
CG17233 | DRSC10259 | 1.51e5 | 1.86e5 | 99820 | 90385 | 9815
CG31468 | DRSC13637 | 2.15e5 | 1.70e5 | 1.93e5 | 2.12e5 | 14880
CG33120 | DRSC02073 | 2.25e5 | 1.93e5 | 1.93e5 | 2.06e5 | 17855
